{"source": "patent US6531464B1", "about": "“Methods for the treatment of neurodegenerative disorders using substituted phenanthridinone derivatives” (Inotek Pharmaceutical Corporation, priority 1999, dated 2003)", "note": "Some entries share one result that the patent states for a list of compounds. Some ranges recur; such a range may be that of the whole group of compounds.", "data": [{"tested_on": "Balb/c mice", "assay": "LPS-induced mortality (systemic inflammatory model)", "settings": "LPS 120 mg/kg; 10 mg/kg every 6 hours; over 24 hours; 70% death without treatment", "values": [{"smiles": "O=C(CN1CCOCC1)Nc1ccc2[nH]c(=O)c3ccccc3c2c1", "note": "[PJ38]", "endotoxin-induced mortality (death)": "30-40%"}, {"smiles": "CCN(CC)CC(=O)Nc1ccc2[nH]c(=O)c3ccccc3c2c1", "note": "[PJ44]", "endotoxin-induced mortality (death)": "30-40%"}, {"smiles": "O=C(CN1CCCCC1)Nc1ccc2[nH]c(=O)c3ccccc3c2c1", "note": "[PJ36]", "endotoxin-induced mortality (death)": "30-40%"}, {"smiles": "CN(C)CC(=O)Nc1ccc2[nH]c(=O)c3ccccc3c2c1", "note": "[PJ34, N-(6-oxo-5,6-dihydro-phenanthridin-2-yl)-N,N-dimethylacetamide]", "endotoxin-induced mortality (death)": "30-40%"}, {"smiles": "CN1CCN(CC(=O)Nc2ccc3[nH]c(=O)c4ccccc4c3c2)CC1", "note": "[PJ46]", "endotoxin-induced mortality (death)": "30-40%"}]}]}
